# This is one part of the list. Further columns of the screen follow, without active or inactive calls. Most of these compounds were active or inconclusive in the main read-out, so they are no random draw. Potencies come from curve fits of mixed quality, noted in brackets.
# Test: IkB Signaling
# Settings: ABC-DLBCL IkBa-CBG/CBR dual luciferase ratio (green luciferase fused to IkBa over red control in OCI-Ly3 lymphoma cells), 4 h
# Excerpt: NIH Molecular Libraries Screening Centers Network [MLSCN]
# NIH Chemical Genomics Center [NCGC]
# Nuclear factor kappa-B (NF-kappa-B) plays an important role in normal B cell development and survival. Diffuse large B cell lymphoma (DLBCL) is the most commonly observed type of non-Hodgkin's lymphoma. Gene expression analysis has identified an activated B cell-like subtype of DLBCL (ABC-DLBCL) which expresses known NF-kappa-B target genes. […] However, targets upstream of IKK have been largely unexplored and so nodes upstream of IKK in the NF-kappa-B pathway remain untested due to the lack of chemical probes.
# A cell-sensor assay for I-kappa-B-alpha stabilization was developed with NIH investigator Dr. R. Eric Davis in Dr. Louis M. Staudt's laboratory. The assay uses green (CBG68) and red (CBR) emitting beetle luciferases [Chroma-Glo(TM) developed by Promega Corp.] where the green luciferase is fused to I-kappa-B-alpha and the red luciferase is present in its native state. Both luciferase genes are stably present in the OCI-Ly3 human ABC DLBCL cell line, but their expression is under the control of tetracycline-inducible promoters. Following the addition of doxycycline to induce expression of the luciferases, the green luminescence in control cultures rises only slowly because the CBG fusion partner I-kappa-B-alpha is targeted by IKK activity for rapid degradation. In contrast, green luminescence rises rapidly in the presence of proteasome inhibitors or IKK inhibitors. The rise in red luminescence of CBR is not affected by proteasome or IKK inhibitors, and serves as normalization for cell number and nonspecific effects. Compounds were screened as a concentration-titration series that ranged from 57 uM to 0.7 nM.
# NCGC Assay Protocol Summary:
# Cells were seeded in 1536-well plates at 5000 cells/3ul in IMDM medium containing 0.5% FBS, w/o phenol red, L-glutamine, 25 mM HEPES, 3 mg/ml sodium bicarbonate. After centrifugation for 1 min. at 1000 rpm, 23 nl of compounds or DMSO were delivered to each well using a pin tool. Then 1ul 80ng/ml doxycycline was dispensed into white solid 1536-well plates and the plates were incubated at 37C/5% C02 in a cell incubator for 4 hrs. Then 4 ul Chroma-Glo luminescent substrate mix (Promega) was added to each well. The plate was incubated at R.T. for 10-15 min. The plates were measured on a ViewLux plate reader for green luminescence (540/20 nm filter) and red luminescence (618/8 nm filter). The green and red luminescent signals were corrected for red and green luminescence filter overlap using previously determined filter calibration constants (determined using the procedure outlined in the Promega Technical Manual). The %Activity was determined from the ratio of corrected green/red luminescent values. Green luminescent and ratio %Activity was determined by normalizing to the difference in signal between basal cells (0% Activity) and cells incubated with 10 uM of the proteasome inhibitor MG-132 (100% Activity). Red luminescent %Activity was normalized to the difference between red luminesence in basal cells (0%Activity) and zero luminescence (-100% Activity).
# Concentration-response curves were fitted to the signals arising from the green luminescence (I-kappa-B-alpha-luciferase fusion; IkB-luc) and the red luminescence (unfused luciferase; luc) as well as the calculated ratio. The concentration-effect curves were then classified based on curve quality (r2), response magnitude and degree of measured activity. Compounds were then categorized based on their concentration-response curves for all three datasets (Ikb-luc, luc and ratio).
# Keywords: IKK, I-kappa-B, IkB, IkBa, cytotoxicity, luminescence, MLSMR, MLSCN, NIH Roadmap, qHTS, NCGC
# [1] = measured here: control luc red channel unless noted
smiles,measurement,setting,value
COc1ccccc1-c1nn(CCC(=O)Nc2ccccc2)c2nc(C)cc(C)c12,AC50,[1],"10 µM [falling, partial curve]"
Cc1ccc2nc(-c3ccc(C)s3)c(Nc3ccc4c(c3)OCCO4)n2c1,AC50,[1],"15.8 µM [falling, partial curve]"
O=C(NCc1ccccc1Cl)c1ccc2c(c1)NC(=O)C(CS(=O)(=O)Cc1ccc(Cl)cc1)N2 (stereo unspecified),AC50,[1],"20 µM [falling, partial curve]"
Cc1ccc2[nH]cc(C(c3ccccc3)c3ccc(Cl)s3)c2c1 (stereo unspecified),AC50,[1],"3.16 µM [falling, partial curve]"
Cc1cccc2sc(N(Cc3cccnc3)C(=O)c3ccco3)nc12,AC50,[1],"25.1 µM [falling, partial curve]"
O=C(NCc1ccco1)c1ccc(S(=O)(=O)N2CCCc3ccccc32)cc1,AC50,[1],"15.8 µM [falling, partial curve]"
CCOc1ccc(NC(=O)CN2C(=O)c3ccccc3Sc3ccc(C(=O)OC)cc32)cc1,AC50,[1],"2.51 µM [falling, partial curve]"
Cc1cc(C)cc(-n2c(SCC(=O)NCc3ccc(F)cc3)nc3c([nH]c4ccccc43)c2=O)c1,AC50,[1],"1.58 µM [rising, full curve]"
Cc1ccc2c(c1)c(=O)c1ccccc1n2CCCC(=O)Nc1ccc(Cl)c(Cl)c1,AC50,[1],"7.94 µM [falling, full curve]"
COc1cc(NC(=O)CSc2nc(-c3ccccc3)no2)cc(OC)c1,AC50,[1],"5.01 µM [falling, partial curve]"
COc1cccc(NC(=O)CN2C(=O)CC(c3ccco3)Sc3ccccc32)c1 (stereo unspecified),AC50,[1],"31.6 µM [falling, partial curve]"
COC(=O)c1sc(-c2ccccc2)cc1NC(=O)c1cccc(Cl)c1,AC50,[1],"0.0501 µM [falling, full curve, poor fit]"
Cc1cccc(C)c1NC(=O)C(=O)NCC(c1cccnc1)N1CCc2ccccc21 (stereo unspecified),AC50,[1],"1.58 µM [falling, partial curve]"
CN(C)c1ccc(C(=C2C=CC(=[N+](C)C)C=C2)c2ccc(N(C)C)cc2)cc1,AC50,measured here: IkB-luc green channel,"20 µM [falling, full curve, poor fit]"
same,AC50,measured here: control luc red channel,"0.631 µM [falling, full curve]"
O=C(CSc1nc2c([nH]c3ccccc32)c(=O)n1-c1ccc(Cl)cc1)NC1CCCCC1,AC50,[1],"0.316 µM [falling, full curve, poor fit]"
CSc1nc(C)c2cc(C)oc2n1,AC50,[1],"126 nM [rising, full curve, poor fit] [measured here: IkB-luc green channel]"
CCc1ccc(NC(=O)N2CCN(Cc3nc4ccc(C)cc4o3)CC2)cc1,AC50,[1],"25.1 µM [falling, single point]"
COc1ccc(NC(=O)Cn2nnc(C(=O)NCc3ccco3)c2N)c(OC)c1,AC50,[1],"39.8 µM [rising, partial curve, poor fit]"
Cc1cccc(N(C)C(=O)c2cc3cc4ccc(C)cc4nc3o2)c1,AC50,[1],"15.8 µM [falling, single point]"
Cc1cc(Nc2cccc(Br)c2)n2c(nc3ccccc32)c1C#N,AC50,[1],"1.26 µM [rising, partial curve]"
CCOc1cc(C(Nc2cc(C)ccn2)c2ccc3cccnc3c2O)ccc1OC (stereo unspecified),AC50,[1],"15.8 µM [rising, partial curve] [measured here: IkB-luc green channel]"
Cc1ccc(CNC(=O)c2cn(C3CCCC3)c(=O)c3c2c2ccccc2n3C)o1,AC50,[1],"7.94 µM [falling, partial curve]"
COc1ccc(N2CCN(S(=O)(=O)c3cc(Br)cc4c3N(C(=O)C3CC3)CC4)CC2)cc1,AC50,[1],"10 µM [falling, partial curve, poor fit]"
CC(C)(C)OC(=O)N1CCC(c2c(C(=O)N3CCN(c4ccccn4)CC3)cnn2-c2cccc(F)c2)CC1,AC50,[1],"39.8 µM [falling, single point]"
Cc1ccc(C(=O)NCC(c2ccco2)S(=O)(=O)c2ccccc2)cc1C (stereo unspecified),AC50,[1],"31.6 µM [falling, partial curve]"
CCOC(=O)c1ccc(NS(=O)(=O)c2ccc3c(c2)CCN3C(=O)CC)cc1,AC50,[1],"20 µM [falling, partial curve]"
O=C(CSc1nccn1Cc1ccccc1)Nc1nc2ccccc2s1,AC50,[1],"31.6 µM [falling, single point]"
Cc1cc(C)c(Cn2c(=O)n(Cc3ccccc3)c(=O)c3c(C)c(C)sc32)c(C)c1,AC50,[1],"39.8 µM [falling, single point]"
Cc1ccc(S(=O)(=O)c2nnn(CC(=O)Nc3ccccc3C)c2N)cc1,AC50,[1],"39.8 µM [rising, single point]"
COc1ccc(-n2nc(C(=O)N3CCCCC3)c3c4ccccc4n(C)c3c2=O)cc1Cl,AC50,[1],"1.26 µM [rising, full curve, poor fit]"

# Two entries picked at random from those above, as already listed:
smiles,measurement,setting,value
COc1ccc(NC(=O)Cn2nnc(C(=O)NCc3ccco3)c2N)c(OC)c1,AC50,[1],"39.8 µM [rising, partial curve, poor fit]"
O=C(NCc1ccco1)c1ccc(S(=O)(=O)N2CCCc3ccccc32)cc1,AC50,[1],"15.8 µM [falling, partial curve]"
